Measured values published in patent publication US20160053120A1, “AZO DYE USED FOR A COLOR FILTER OF A LCD” (DOW GLOBAL TECHNOLOGIES LLC, priority 2013, published 2016).

Assay: Transmittance of polymer film in visible light range
Format: physicochemical
Settings: 0.9 micron film on glass plate, 380-780 nm, based on glass plate coated by acrylic resin only
Method: 0.05 g of mixture of Dye 1 and Dye 2 (supplied from Yabang Co., Ltd, 97% purity), 1.6 g of cyclohexanone and 0.7 g of alkaline soluble acrylic resin (MIPHOTO RPR5200, supplied from Miwan Commercial Co., Ltd., 25-35% of solid content in methyl 3-methoxypropionate) were mixed and stirred for 5 minutes at room temperature. Then the solution was spin coated onto a glass plate (thickness: 1 mm, spinning rate: 400 rpm, time: 18 seconds) using KW-4A type spin coater made by Kunshan Lidian JingmiJixie Co., Ltd. The wet film was inserted in an oven and heated at 80° C. for 30 minutes, then at 150° C. for 15 minutes. Film thickness, transmittance and chromaticity coordinates of the obtained film were measured as disclosed below. Film thickness of the film was 0.9 micron, transmittance of the film was 97.7% based on glass plate coated by acrylic resin only. Chromaticity coordinates measured by UltraScan Pro (Hunterlab) colorimeter was, x=0.4093, y=0.2695 and Y=31.6.
The transmission peak of the color film in visible light range (wavelength: 380 nm˜780 nm) on glass sheet subtracted with the transmittance of glass sheet is employed to indicate the transmittance. The visible transmission spectrum is recorded by UltraScan Pro (Hunterlab) colorimeter.

SMILES	Transmittance (%)
CC1=NN(c2ccccc2)C(=O)C1/N=N/c1ccccc1 (stereo not drawn) [Example 2, C.I. solvent yellow 16]	98.1
Oc1ccc2ccccc2c1/N=N/c1ccccc1 [Example 4, C.I. solvent yellow 14]	97.2
Cc1ccccc1/N=N/c1ccc(/N=N/c2c(O)ccc3ccccc23)c(C)c1 [Example 3, C.I. solvent red 24]	97.3
